The amount applied is not stated for every result. Marks after values point to notes of the source that are not given here.
Assays:
UCD patients [1] = assay: HPN-100-009 (Example 2): amino acid assessment; type: in vivo, human; details: Age 2 Months to <2 Years
UCD patients [2] = assay: Example 3: amino acids baseline and change from baseline up to Month 24; type: in vivo, human; details: Age 0 to <2 months

SMILES: O=C(CCCc1ccccc1)OCC(COC(=O)CCCc1ccccc1)OC(=O)CCCc1ccccc1 [RAVICTI, benzenebutanoic acid, 1′,1″-(1,2,3-propanetriyl) ester]
- Glutamate, Change from Baseline at Day 7 (UCD patients [1]): −54.5 (±92.63) μmol/L
- Glutamate, Change from Baseline at Month 2 (UCD patients [1]): 7.8 (±25.65) μmol/L
- Glutamate, Change from Baseline at Month 3 (UCD patients [1]): 2 (±32.53) μmol/L
- Glutamate, Change from Baseline at Month 4 (UCD patients [1]): −32.7 (±5.51) μmol/L
- Glutamate, Change from Baseline at Month 5 (UCD patients [1]): −10 (±n/a)^c μmol/L
- Glutamate, Change from Baseline at Month 6 (UCD patients [1]): −3.3 (±48.69) μmol/L
- Glutamate, Change from Baseline at Month 9 (UCD patients [1]): −23 (±n/a)^c μmol/L
- Glutamine, Change from Baseline at Day 7 (UCD patients [1]): −184.3 (±168.66) μmol/L
- Glutamine, Change from Baseline at Month 2 (UCD patients [1]): −174.6 (±318.25) μmol/L
- Glutamine, Change from Baseline at Month 3 (UCD patients [1]): −134.5 (±136.47) μmol/L
- Glutamine, Change from Baseline at Month 4 (UCD patients [1]): −292 (±384.81) μmol/L
- Glutamine, Change from Baseline at Month 5 (UCD patients [1]): −240 (±n/a)^c μmol/L
- Glutamine, Change from Baseline at Month 6 (UCD patients [1]): −114.7 (±734.14) μmol/L
- Glutamine, Change from Baseline at Month 9 (UCD patients [1]): −859 (±n/a)^c μmol/L
- Isoleucine, Change from Baseline at Day 7 (UCD patients [1]): 2.7 (±19.16) μmol/L
- Isoleucine, Change from Baseline at Month 2 (UCD patients [1]): 4.2 (±45.86) μmol/L
- Isoleucine, Change from Baseline at Month 3 (UCD patients [1]): −30.5 (±20.51) μmol/L
- Isoleucine, Change from Baseline at Month 4 (UCD patients [1]): −12.7 (±16.62) μmol/L
- Isoleucine, Change from Baseline at Month 5 (UCD patients [1]): −19 (±n/a)^c μmol/L
- Isoleucine, Change from Baseline at Month 6 (UCD patients [1]): −20.7 (±9.07) μmol/L
- Isoleucine, Change from Baseline at Month 9 (UCD patients [1]): 8 (±n/a)^c μmol/L
- Leucine, Change from Baseline at Day 7 (UCD patients [1]): −0.8 (±32.76) μmol/L
- Leucine, Change from Baseline at Month 2 (UCD patients [1]): 9.8 (±65.97) μmol/L
- Leucine, Change from Baseline at Month 3 (UCD patients [1]): −35 (±35.36) μmol/L
- Leucine, Change from Baseline at Month 4 (UCD patients [1]): −21.7 (±19.22) μmol/L
- Leucine, Change from Baseline at Month 5 (UCD patients [1]): −32 (±n/a)^c μmol/L
- Leucine, Change from Baseline at Month 6 (UCD patients [1]): −30.3 (±11.59) μmol/L
- Leucine, Change from Baseline at Month 9 (UCD patients [1]): −26 (±n/a)^c μmol/L
- Sum of Glutamate and Glutamine, Change from Baseline at Day 7 (UCD patients [1]): −238.8 (±203.57) μmol/L
- Sum of Glutamate and Glutamine, Change from Baseline at Month 2 (UCD patients [1]): −166.8 (±332.42) μmol/L
- Sum of Glutamate and Glutamine, Change from Baseline at Month 3 (UCD patients [1]): −132.5 (±169) μmol/L
- Sum of Glutamate and Glutamine, Change from Baseline at Month 4 (UCD patients [1]): −324.7 (±389.32) μmol/L
- Sum of Glutamate and Glutamine, Change from Baseline at Month 5 (UCD patients [1]): −250 (±n/a)^c μmol/L
- Sum of Glutamate and Glutamine, Change from Baseline at Month 6 (UCD patients [1]): −118 (±772.5) μmol/L
- Sum of Glutamate and Glutamine, Change from Baseline at Month 9 (UCD patients [1]): −836 (±n/a)^c μmol/L
- Valine, Change from Baseline at Day 7 (UCD patients [1]): 4 (±24.13) μmol/L
- Valine, Change from Baseline at Month 2 (UCD patients [1]): 40.6 (±90.06) μmol/L
- Valine, Change from Baseline at Month 3 (UCD patients [1]): −45.5 (±27.58) μmol/L
- Valine, Change from Baseline at Month 4 (UCD patients [1]): −17 (±8.19) μmol/L
- Valine, Change from Baseline at Month 5 (UCD patients [1]): −29 (±n/a)^c μmol/L
- Valine, Change from Baseline at Month 6 (UCD patients [1]): −33.7 (±10.21) μmol/L
- Valine, Change from Baseline at Month 9 (UCD patients [1]): 70 (±n/a)^c μmol/L
- Glutamate change from baseline (UCD patients [2]; Day 7): 26.81 (±76.417); μmol/L
- Glutamine change from baseline (UCD patients [2]; Day 7): 21.04 (±260.500); μmol/L
- Isoleucine change from baseline (UCD patients [2]; Day 7): −49.09 (±198.730); μmol/L
- Leucine change from baseline (UCD patients [2]; Day 7): −81.91 (±273.127); μmol/L
- Sum of glutamine and glutamate change from baseline (UCD patients [2]; Day 7): 47.85 (±230.343); μmol/L
- Valine change from baseline (UCD patients [2]; Day 7): −63.96 (±290.312); μmol/L
- Glutamate change from baseline (UCD patients [2]; Month 2): 25.16 (±64.474); μmol/L
- Glutamine change from baseline (UCD patients [2]; Month 2): −27.62 (±379.796); μmol/L
- Isoleucine change from baseline (UCD patients [2]; Month 2): −1.62 (±233.754); μmol/L
- Leucine change from baseline (UCD patients [2]; Month 2): −60.80 (±278.083); μmol/L
- Sum of glutamine and glutamate change from baseline (UCD patients [2]; Month 2): −2.46 (±402.919); μmol/L
- Valine change from baseline (UCD patients [2]; Month 2): −39.04 (±297.634); μmol/L
- Glutamate change from baseline (UCD patients [2]; Month 3): 50.05 (±73.988); μmol/L
- Glutamine change from baseline (UCD patients [2]; Month 3): −15.09 (±352.471); μmol/L
- Isoleucine change from baseline (UCD patients [2]; Month 3): −20.46 (±216.885); μmol/L
- Leucine change from baseline (UCD patients [2]; Month 3): −51.66 (±269.558); μmol/L
- Sum of glutamine and glutamate change from baseline (UCD patients [2]; Month 3): 34.96 (±371.522); μmol/L
- Valine change from baseline (UCD patients [2]; Month 3): −23.86 (±290.128); μmol/L
- Glutamate change from baseline (UCD patients [2]; Month 4): 18.77 (±67.561); μmol/L
- Glutamine change from baseline (UCD patients [2]; Month 4): −113.98 (±230.855); μmol/L
- Isoleucine change from baseline (UCD patients [2]; Month 4): −67.32 (±173.564); μmol/L
- Leucine change from baseline (UCD patients [2]; Month 4): −82.82 (±224.269); μmol/L
- Sum of glutamine and glutamate change from baseline (UCD patients [2]; Month 4): −95.21 (±238.136); μmol/L
- Valine change from baseline (UCD patients [2]; Month 4): −74.41 (±233.538); μmol/L
- Glutamate change from baseline (UCD patients [2]; Month 5): 57.43 (±98.550); μmol/L
- Glutamine change from baseline (UCD patients [2]; Month 5): −99.82 (±305.674); μmol/L
- Isoleucine change from baseline (UCD patients [2]; Month 5): −75.45 (±221.845); μmol/L
- Leucine change from baseline (UCD patients [2]; Month 5): −118.55 (±311.125); μmol/L
- Sum of glutamine and glutamate change from baseline (UCD patients [2]; Month 5): −42.39 (±288.782); μmol/L
- Valine change from baseline (UCD patients [2]; Month 5): −98.67 (±326.300); μmol/L
- Glutamate change from baseline (UCD patients [2]; Month 6): 43.65 (±140.985); μmol/L
- Glutamine change from baseline (UCD patients [2]; Month 6): −138.16 (±349.269); μmol/L
- Isoleucine change from baseline (UCD patients [2]; Month 6): −35.94 (±78.367); μmol/L
- Leucine change from baseline (UCD patients [2]; Month 6): −11.85 (±40.693); μmol/L
- Sum of glutamine and glutamate change from baseline (UCD patients [2]; Month 6): −94.51 (±297.378); μmol/L
- Valine change from baseline (UCD patients [2]; Month 6): 2.64 (±77.843); μmol/L
- Glutamate change from baseline (UCD patients [2]; Month 9): 33.41 (±150.273); μmol/L
- Glutamine change from baseline (UCD patients [2]; Month 9): −56.08 (±269.288); μmol/L
- Isoleucine change from baseline (UCD patients [2]; Month 9): −73.09 (±245.051); μmol/L
- Leucine change from baseline (UCD patients [2]; Month 9): −115.09 (±338.186); μmol/L
- Sum of glutamine and glutamate change from baseline (UCD patients [2]; Month 9): −22.66 (±318.034); μmol/L
- Valine change from baseline (UCD patients [2]; Month 9): −90.40 (±355.316); μmol/L

Reference: patent US10668040B2, “Treatment of urea cycle disorders in neonates and infants” (Horizon Therapeutics, LLC, priority 2017, dated 2020)
